PubChem BioAssay AID1259261 | Sanger Institute, 2017

Screen: 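Find kinase silencing that cuts viability alone or with anchor drugs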 (primary screen)
Cell system: HCC2998 human colorectal cancer cells
Knock-down reagent: siRNA pool against human genes
Challenge: anchor drugs BYL719 1 µM, cetuximab 5 µg/ml or trametinib 10 nM, each compared with DMSO vehicle
Measurement: 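Viability as fraction of non-targeting control plus robust z-score without drug; synergy scores compare knock-down plus drug against each alone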
Direction: viability z-score, knock-down alone: higher = more viable cells than controls
Call rule: 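Essential when the siRNA-alone viability robust z-score is below -3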
Meaning of the calls: active = essential; inactive = no change
This is a random part of 794 reagents tested. 10 of all reagents (1.3%) count as active. 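Calls reflect knock-down alone without drug; synergy scores with BYL719, cetuximab or trametinib do not affect calls.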 Unmarked entries are inactive. Further read-outs or replicates are left out here. Not stated in the record: the amount of reagent, the time to read-out.

Target gene | viability z-score, knock-down alone
SIK1 (salt inducible kinase 1) | -0.312
NRBP1 (nuclear receptor binding protein 1) | -1.41
ZAP70 (zeta chain of T cell receptor associated protein kinase 70) | -1.5
PNKP (polynucleotide kinase 3'-phosphatase) | 0.868
MAST1 (microtubule associated serine/threonine kinase 1) | -0.893
CERT1 (ceramide transporter 1) | 0.556
DUSP21 (dual specificity phosphatase 21) | 0.661
STK26 (serine/threonine kinase 26) | 0.792
TLK1 (tousled like kinase 1) | -0.556
PRKAR1B (protein kinase cAMP-dependent type I regulatory subunit beta) | -0.51
DCLK2 (doublecortin like kinase 2) | 0.623
AK7 (adenylate kinase 7) | 0.728
PKIB (cAMP-dependent protein kinase inhibitor beta) | -0.336
CDK19 (cyclin dependent kinase 19) | 0.73
VRK2 (VRK serine/threonine kinase 2) | -0.133
PIP4K2A (phosphatidylinositol-5-phosphate 4-kinase type 2 alpha) | 0.885
IGF2R (insulin like growth factor 2 receptor) | 1.21
MAP3K3 (mitogen-activated protein kinase kinase kinase 3) | -1.8
TESK1 (testis associated actin remodelling kinase 1) | -0.731
MAGI1 | -1.05
CAMKK1 (calcium/calmodulin dependent protein kinase kinase 1) | 0.759
EPHA8 (EPH receptor A8) | 1.15
MAP4K2 (mitogen-activated protein kinase kinase kinase kinase 2) | -1.85
MAP2K4 (mitogen-activated protein kinase kinase 4) | -0.363
CSNK2B (casein kinase 2 beta) | -1.25
INSR (insulin receptor) | 0.0137
PRKAA1 (protein kinase AMP-activated catalytic subunit alpha 1) | 0.136
PCBP1 (poly(rC) binding protein 1) | -0.253
TRIB1 (tribbles pseudokinase 1) | 0.375
CAD | 1.21
NRAS (NRAS proto-oncogene, GTPase) | -0.0955
ADK (adenosine kinase) | 1.1
DSTYK (dual serine/threonine and tyrosine protein kinase) | 1.21
PBK (PDZ binding kinase) | -0.0897

4 entries already listed, sorted by “viability z-score, knock-down alone”, high to low.
Target gene | viability z-score, knock-down alone
CAD | 1.21
TRIB1 (tribbles pseudokinase 1) | 0.375
NRAS (NRAS proto-oncogene, GTPase) | -0.0955
PCBP1 (poly(rC) binding protein 1) | -0.253
